Test results as given in PubChem BioAssay AID1346378 (National Center for Advancing Translational Sciences (NCATS), 2018).
Screen size: about 420,000 compounds; about 540 (0.13%) were called active. Listed are the inconclusive results; actives and inactives stand elsewhere. Rule as the data show it: active = activity change below about -50%; inconclusive = mostly about -30% to -49%; inactive = weaker than that.

By UniProt entry, the sequences of proteins in these tests, tags left out.
UniProt Q9BTU6, whole entry: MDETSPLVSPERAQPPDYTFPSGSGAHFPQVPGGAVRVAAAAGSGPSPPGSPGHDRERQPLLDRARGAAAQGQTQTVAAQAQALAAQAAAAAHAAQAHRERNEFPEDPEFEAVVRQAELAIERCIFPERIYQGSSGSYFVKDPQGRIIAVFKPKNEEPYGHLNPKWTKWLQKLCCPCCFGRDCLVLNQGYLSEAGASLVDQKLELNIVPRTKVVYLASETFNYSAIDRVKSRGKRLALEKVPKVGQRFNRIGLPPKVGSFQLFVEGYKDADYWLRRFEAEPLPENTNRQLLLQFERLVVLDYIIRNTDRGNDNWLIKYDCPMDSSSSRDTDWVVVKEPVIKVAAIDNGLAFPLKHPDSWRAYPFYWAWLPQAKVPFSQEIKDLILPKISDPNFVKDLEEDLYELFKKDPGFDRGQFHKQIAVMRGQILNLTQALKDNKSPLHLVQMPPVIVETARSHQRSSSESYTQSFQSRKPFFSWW

target: Phosphatidylinositol 4-kinase type 2-alpha (Homo sapiens) (UniProt Q9BTU6); experiment: qHTS for small molecular inhibitors of PI4K2A; details: purified PI4K2A, ADP-Glo luminescence, 1 h
Text: The phosphatidylinositol 4-phosphate (PI4P) is emerging as a key regulator of lipid transfer in ER-membrane contact sites. The four different phosphatidylinositol 4-kinase (PI4K) enzymes generate PI4P in different membrane compartments supporting distinct cellular processes many of which are crucial for the maintenance of cellular integrity but also hijacked by intracellular pathogens. The goal of this screening project is to search for small molecular inhibitors of PI4K2A based on a high throughput screening strategy.The ADP-Glo assay was used as a starting point to develop a miniaturized version for HTS applications. To implement the HTS screen, the PI4K ADP-Glotrade mark Kinase assay (Promega, V9102) was miniaturized for the 1536-well format used at NCGC.
For the robotic screening, the ADP-Glo assay using the ADP-Glotrade mark Kinase Assay kit from Promega was miniaturized and optimized on 1536-well white solid bottom plates (Greiner Bio-one). […] The resulting luminescence signal was measured on Viewlux plate reader (PerkinElmer). […]

Row | Structure (SMILES) | outcome
1 | C/C1=C2N=C(/C=C3N=C(/C(C)=C4\[N-][C@@](C)([C@@H]5N=C1[C@](C)(CCC(=O)NC[C@@H](C)OP(=O)([O-])O[C@H]1[C@@H](O)[C@@H](n6cnc7cc(C)c(C)cc76)O[C@@H]1CO)[C@H]5CC(N)=O)[C@@](C)(CC(N)=O)[C@@H]4CCC(N)=O)[C@@](C)(CC(N)=O)[C@@H]\3CCC(N)=O)C(C)(C)[C@@H]/2CCC(N)=O.[C-]#N.[Co+3] | inconclusive
